Data: patent US20260219259A1, “METHOD FOR QUANTIFYING INSULIN SECRETION CAPACITY IN HUMAN CELL” (JUNTENDO EDUCATIONAL FOUNDATION, priority 2023, published 2026)
For at least one compound, name, drawing or mass did not settle the structure.

Test system: Huh7 cells
Assay: Insulin production in Huh7 cells expressing Ngn3, Mafa and Pdx1, insulin quantified using HISCL HI-1000
Format: cell-based, human
Conditions: concentration of from 0.3 to 10 nM; FIG. 8
Experimental: The recombinant SW872 cells that express 3 genes Ngn3, Mafa, and Pdx1 used here were expanded by long-term culture, and the resulting cells were subjected to the same experiment as above. […] Accordingly, a liver-derived cell line Huh7 was infected with Sendai virus vectors (TOKIWA-Bio Inc.) that express 3 genes Ngn3, Mafa, and Pdx1, cultured in a differentiation medium for β cells for 24 hours, and then transfected with expression plasmids of human KLF9 gene and human UCN3 gene using Lipofectamine 3000, and the amount of insulin produced was measured 5 days later. The expression plasmids of human KLF9 gene and human UCN3 gene were prepared by PCR and In-Fusion ligation reaction in the same manner as the method described in Example 3(1) using primers shown in SEQ ID NOs: 65 and 66 and SEQ ID NOS: 69 and 70. pEBMulti-Hyg was used as a negative control, and pEBMulti-hIns was used as a positive control. […] Insulin was quantified using HISCL HI-1000 (Sysmex Corp.). […]
Human SW872 cells that produce hIns-HiBiT5 were infected with Sendai virus vectors that express 3 genes Ngn3, Mafa, and Pdx1 in the same manner as in Example 4, and cultured in a differentiation medium for β cells for 24 hours. […] The method for quantifying insulin was performed in the same manner as in Example 4. […]

In the case of `O=c1ncccn1[C@@H]1O[C@H](CO)[C@@H](O)[C@H]1O` [zebularine], the “insulin production from the Huh7 cells” value is reported as “promoted insulin production”.
